Measurements published in US9612237B2, “Ritalinic acid immunoassay” (Randox Laboratories Limited, priority 2013, dated 2017).

System: antisera generated in response to immunogen of Example 11
Assay: Competitive chemiluminescent biochip immunoassay, antisera raised against immunogen of Example 11, conjugate of Example 12
Assay type: binding, sheep

With `CN1CC[C@]23c4c5ccc(O)c4O[C@H]2[C@@H](O)C=C[C@H]3[C@H]1C5.O=S(=O)(O)O` [morphine sulphate] the “Concentration exhibiting no cross-reactivity” value was 10 µg/mL.
